Test: heat stability of vinyl chloride polymer sheet at 204° C

CCCCCCC[CH2][Sn]([S]CC(=O)OCCCCCC(C)C)([S]CC(=O)OCCCCCC(C)C)[S]CC(=O)OCCCCCC(C)C [A, mono-n-octyltin-S,S',S"--tris(isooctyl mercaptoacetate)]
color rating (after 5 minutes of heating, 204° C): slight yellowness
color rating (after 10 minutes of heating, 204° C): slight yellowness
color rating (after 15 minutes of heating, 204° C): yellow
color rating (after 20 minutes of heating, 204° C): yellow-brown
color rating (after 25 minutes of heating, 204° C): black
color rating (initial, following milling): off white

— patent USRE32935E, “Non-toxic organotin stabilizers for vinyl chloride polymers” (M&T Chemicals, Inc., priority 1985, dated 1989)
